Laboratory results as given in the supplement of paper PMC7646827.
Structures can show the parent of a compound that is named as a salt. Repeats are few or missing, and single values can be far off.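 All cells are established human bladder cancer lines, one of them grown from a patient-derived xenograft. Viability was read by a luminescent ATP assay as percent inhibition versus vehicle over a seven-point dilution series; the paper calls scores above 59 very active, 30–59 active, 21–29 semi-active, 9–20 low active and below 9 inactive.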

Experiments:
Assay in all cases: drug sensitivity score DSS3 (score 0-100); higher = more sensitive; extreme values may be limits of the assay
Settings in all cases: culture: 3D, ultra-low attachment; treatment time: 5 days
[1] = system: UM-UC-5
[2] = system: UM-UC-6
[3] = system: UM-UC-15
[4] = system: T-24
[5] = system: UM-UC-17
[6] = system: UM-UC-12
[7] = system: SCaBER
[8] = system: BC8149
[9] = system: UM-UC-18
[10] = system: UM-UC-1
[11] = system: UM-UC-14
[12] = system: 5637
[13] = system: TCCSUP
[14] = system: J82
[15] = system: UM-UC-3
[16] = system: SW780
[17] = system: UM-UC-9

| Structure (SMILES) | drug sensitivity score DSS3 [1] | drug sensitivity score DSS3 [2] | drug sensitivity score DSS3 [3] | drug sensitivity score DSS3 [4] | drug sensitivity score DSS3 [5] | drug sensitivity score DSS3 [6] | drug sensitivity score DSS3 [7] | drug sensitivity score DSS3 [8] | drug sensitivity score DSS3 [9] | drug sensitivity score DSS3 [10] | drug sensitivity score DSS3 [11] | drug sensitivity score DSS3 [12] | drug sensitivity score DSS3 [13] | drug sensitivity score DSS3 [14] | drug sensitivity score DSS3 [15] | drug sensitivity score DSS3 [16] | drug sensitivity score DSS3 [17] |
| --- | --- | --- | --- | --- | --- | --- | --- | --- | --- | --- | --- | --- | --- | --- | --- | --- | --- |
| CNc1nc(-c2ccc3c(N)n[nH]c3c2)cc(N2C[C@@H](C(=O)NC3CCCCC3)CC[C@H]2C)n1 (max dose 10000 nM) | 0.0461 | 0.98 | 0 | 0 | 0 | 0.000153 | 0 | 10.2 | 0.0205 | 2.02 | 1.82 | 1.67 | 1.33 | 0.00925 | 0 | 0 | 0 |
| Nc1nc(Nc2ccc(S(N)(=O)=O)cc2)nn1C(=O)c1c(F)cccc1F (max dose 10000 nM) | 0 | 9.73 | 0 | 0 | 19.3 | 0 | 9.68 | 5.54 | 15.1 | 12.9 | 10 | 19.8 | 36.7 | 0 | 6.95 | 11.4 | 5.39 |
| CC(=O)O[C@]1(C(C)=O)CC[C@H]2[C@@H]3C=C(C)C4=CC(=O)CC[C@]4(C)[C@H]3CC[C@@]21C [Megestrol Acetate] (max dose 10000 nM) | 0 | 0 | 0 | 0 | 0 | 0 | 0 | 0 | 0 | 0 | 0 | 0 | 0 | 0 | 0.0258 | 0 | 0 |
| COc1cc2nccc(Oc3ccc(NC(=O)NC4CC4)c(Cl)c3)c2cc1C(N)=O [Lenvatinib (E7080)] (max dose 10000 nM) | 0 | 0.8 | 0 | 0 | 2.68 | 0.407 | 0 | 4.22 | 0 | 3.42 | 7.33 | 2.45 | 17 | 0 | 0 | 1.91 | 0 |
| O=C(Nc1cnn2ccc(N3CCC[C@@H]3c3cc(F)ccc3F)nc12)N1CC[C@H](O)C1 [Larotrectinib (LOXO-101) sulfate] (max dose 10000 nM) | 0 | 0 | 1.4 | 0 | 0 | 0 | 0 | 0 | 0 | 0 | 0 | 0 | 0 | 0 | 0 | 0 | 0 |
| CC(C)C[C@H](NC(=O)[C@H](Cc1ccccc1)NC(=O)c1cnccn1)B(O)O [Bortezomib] (max dose 10000 nM) | 81.4 | 74 | 73.3 | 53.8 | 89 | 91.9 | 87.8 | 78.7 | 72.7 | 88.2 | 85.9 | 73.2 | 89 | 87.6 | 56.4 | 82.8 | 84.3 |
| C[C@H](NC(=O)/C(C#N)=C/c1cccc(Br)n1)c1ccccc1 [WP1066] (max dose 10000 nM) | 0.564 | 0 | 0 | 0 | 0 | 0 | 0 | 0 | 0 | 0 | 0 | 0 | 0 | 0 | 0 | 0 | 0 |
| O=C1NC(=O)/C(=C/c2cccc(C(F)(F)F)c2)S1 [SMI-4a] (max dose 10000 nM) | 0 | 0.0637 | 0.285 | 0 | 0.29 | 0 | 0.459 | 0.516 | 0.569 | 0 | 0 | 0.292 | 0.555 | 0 | 0 | 0 | 0 |
| C=CC(=O)Nc1cc(N2CCN(CC)CC2)ccc1Nc1cc(N(C)C(=O)Nc2c(Cl)c(OC)cc(OC)c2Cl)ncn1 [H3B-6527] (max dose 10000 nM) | 0 | 0 | 2.49 | 0 | 0 | 0 | 0 | 0 | 0 | 0 | 0 | 0 | 0 | 0 | 0 | 0 | 0 |
| COc1ccc(CNc2nc(N3CCC[C@H]3CO)ncc2C(=O)NCc2ncccn2)cc1Cl [Avanafil] (max dose 10000 nM) | 1.07 | 0 | 17.9 | 0 | 0 | 0 | 0 | 0 | 0 | 0 | 0 | 0.105 | 0 | 0 | 0 | 0 | 0 |
| CNC(=O)c1ccc2cc([C@@]3(O)CCn4cncc43)ccc2c1 [TAK-700 (Orteronel)] (max dose 10000 nM) | 0 | 0 | 0 | 0 | 0 | 0 | 0 | 0 | 0 | 0 | 0 | 0 | 0 | 0 | 0 | 0 | 0 |
| CCCN(CCC)C(=O)C1=Cc2ccc(-c3ccc(C(=O)N4CCCC4)cc3)cc2N=C(N)C1 [Motolimod (VTX-2337)] (max dose 10000 nM) | 0 | 0.734 | 0 | 0 | 0 | 0 | 0 | 0 | 0 | 0 | 0 | 0 | 0 | 0 | 0 | 0 | 0 |

Entries of single compounds, looked up by structure. Order of values: drug sensitivity score DSS3 [1]	drug sensitivity score DSS3 [2]	drug sensitivity score DSS3 [3]	drug sensitivity score DSS3 [4]	drug sensitivity score DSS3 [5]	drug sensitivity score DSS3 [6]	drug sensitivity score DSS3 [7]	drug sensitivity score DSS3 [8]	drug sensitivity score DSS3 [9]	drug sensitivity score DSS3 [10]	drug sensitivity score DSS3 [11]	drug sensitivity score DSS3 [12]	drug sensitivity score DSS3 [13]	drug sensitivity score DSS3 [14]	drug sensitivity score DSS3 [15]	drug sensitivity score DSS3 [16]	drug sensitivity score DSS3 [17]
`CC(C)C[C@H](NC(=O)[C@H](Cc1ccccc1)NC(=O)c1cnccn1)B(O)O` [Bortezomib] (max dose 10000 nM) in the list: 81.4	74	73.3	53.8	89	91.9	87.8	78.7	72.7	88.2	85.9	73.2	89	87.6	56.4	82.8	84.3
`O=C(Nc1cnn2ccc(N3CCC[C@@H]3c3cc(F)ccc3F)nc12)N1CC[C@H](O)C1` [Larotrectinib (LOXO-101) sulfate] (max dose 10000 nM) in the list: 0	0	1.4	0	0	0	0	0	0	0	0	0	0	0	0	0	0
